Data reported in article PMC11457642.
These are yes or no findings as the source states them, for the method shown. In cells and extracts the contact can be indirect. Some binding calls cover weakened binding; strength is not graded here.

Biological target: T1, Receptor-interacting serine/threonine-protein kinase 1 (mouse (endogenous in J774A.1)) (UniProt Q60855)
T1 sequence: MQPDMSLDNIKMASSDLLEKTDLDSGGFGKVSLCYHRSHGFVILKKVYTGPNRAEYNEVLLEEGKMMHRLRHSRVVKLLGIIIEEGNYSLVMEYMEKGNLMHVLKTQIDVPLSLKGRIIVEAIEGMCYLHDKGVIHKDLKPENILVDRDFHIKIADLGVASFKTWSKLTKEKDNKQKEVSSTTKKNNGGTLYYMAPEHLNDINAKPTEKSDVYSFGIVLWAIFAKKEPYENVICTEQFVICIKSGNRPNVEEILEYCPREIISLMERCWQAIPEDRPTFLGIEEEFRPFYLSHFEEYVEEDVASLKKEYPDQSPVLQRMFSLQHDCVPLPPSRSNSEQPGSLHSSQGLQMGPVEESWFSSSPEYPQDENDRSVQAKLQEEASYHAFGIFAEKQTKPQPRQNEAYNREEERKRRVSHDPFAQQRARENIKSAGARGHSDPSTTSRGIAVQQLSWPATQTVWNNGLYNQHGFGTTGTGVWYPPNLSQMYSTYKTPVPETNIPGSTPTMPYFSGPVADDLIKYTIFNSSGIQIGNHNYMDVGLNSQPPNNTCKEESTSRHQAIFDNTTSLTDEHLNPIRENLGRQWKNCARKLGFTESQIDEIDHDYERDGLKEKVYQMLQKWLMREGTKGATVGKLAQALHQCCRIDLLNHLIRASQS
Experiment: co-IP; anti-RIP1 (1 ug) with protein A/G magnetic beads, overnight at 4°C, from lysates of J774A.1 cells infected with H. pylori WT, ΔPldA or ΔPldA-in (MOI 100, 3 hr); IP lysis buffer 50 mM Tris-HCl pH 7.4, 150 mM NaCl, 0.5% NP40; detection by immunoblotting

B1: Fas Associated Via Death Domain (protein, UniProt Q61160 1-205)
chain: MDPFLVLLHSLSGSLSGNDLMELKFLCRERVSKRKLERVQSGLDLFTVLLEQNDLERGHTGLLRELLASLRRHDLLQRLDDFEAGTATAAPPGEADLQVAFDIVCDNVGRDWKRLARELKVSEAKMDGIEEKYPRSLSERVRESLKVWKNAEKKNASVAGLVKALRTCRLNLVADLVEEAQESVSKSENMSPVLRDSTVSSSETP
Question: B1 was tested. Which binding did it give?
Answer: The binding was “binds”.
